Test results from PMC8064221.
No constants are given. Whether binding was seen depends on the method and setting. Binding seen in cells or lysates may run through a third protein. Some entries that bind do so weakly or less than the wild type.

Chains of the proteins cited; added tags and fusions are not shown.
UniProt P11798: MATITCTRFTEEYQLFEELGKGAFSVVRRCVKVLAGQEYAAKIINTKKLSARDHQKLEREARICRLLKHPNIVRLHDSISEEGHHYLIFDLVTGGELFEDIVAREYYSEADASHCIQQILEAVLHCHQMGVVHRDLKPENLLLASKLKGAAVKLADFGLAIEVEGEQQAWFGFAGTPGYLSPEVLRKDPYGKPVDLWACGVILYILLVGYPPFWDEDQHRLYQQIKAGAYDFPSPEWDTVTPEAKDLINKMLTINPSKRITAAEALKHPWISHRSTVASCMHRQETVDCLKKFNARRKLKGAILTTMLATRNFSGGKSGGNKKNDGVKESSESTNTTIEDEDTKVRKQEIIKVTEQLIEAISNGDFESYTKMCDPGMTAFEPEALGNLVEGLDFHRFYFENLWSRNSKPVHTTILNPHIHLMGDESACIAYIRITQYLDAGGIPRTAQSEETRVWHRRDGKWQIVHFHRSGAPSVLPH

Molecular target: p62 (mouse (endogenous in HT22)) (UniProt Q64337)
Test: co-IP; total lysates of HT22 cells immunoprecipitated with p62 antibody or IgG control overnight at 4 °C, protein A/G plus agarose, western blot; cells with or without CoCl2 and GAS (GAS reduced the binding)

With “CaMKIIα (Ca2+-calmodulin stimulated protein kinase II alpha) (from UniProt P11798 1-478) (enzyme)” as the substance, how does the binding read?
The binding was “binds”.
